Broadly, the pIC50 is the IC50 on a negative log10 scale, so that one unit is a factor of ten.

Our source for the binding result and IC50 values is patent publication US20180223285.

pIC50: −log10 of the molar value. Construct, isoform or probe ends are uncertain for at least one entry. For part of these data: No signal at the amounts used counts as a negative. Where a protein sequence is shown, tags need not be part of it.

Data set [1] concerns the target T1, human C5a (Homo sapiens) (UniProt P01031).
T1 sequence: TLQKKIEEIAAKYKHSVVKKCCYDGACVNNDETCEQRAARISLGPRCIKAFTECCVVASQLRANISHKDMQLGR
In words: SPR. The conditions noted are these: L-RNA, purified recombinant protein, protein details: recombinant, amine-coupled to CM5 chip for SPR, synthetic backbone.

In data set [2] the target is T2, mouse C5a (Mus musculus) (UniProt P06684).
T2 sequence: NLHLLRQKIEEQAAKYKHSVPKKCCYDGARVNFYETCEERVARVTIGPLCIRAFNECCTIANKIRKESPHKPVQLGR
In words: activity in cells. The conditions noted are these: L-RNA; L-2'-deoxy dU7,dG14,dA15,dU28,dU30,dC38; 5' 40 kDa PEG; chemotaxis of BA/F3-huC5aR cells, 0.3 nM mC5a; assay limit 150 pM; purified recombinant protein; protein details: amine-coupled to CM5 chip for SPR; synthetic backbone; mirror-image nucleic acid; variant of NOX-D20001 (NOX-D19001-6xDNA-020).

The target of data set [3] is T1, human C5a (Homo sapiens). In words: activity in cells. The conditions noted are these: L-RNA, 5' 40 kDa PEG, chemotaxis of BA/F3-huC5aR cells, 0.1 nM huC5a, 37 C, purified recombinant protein, protein details: recombinant, amine-coupled to CM5 chip for SPR, synthetic backbone, mirror-image nucleic acid.
For data set [4], the target named is T3, rat C5a (Rattus norvegicus) (UniProt P08650).
T3 sequence: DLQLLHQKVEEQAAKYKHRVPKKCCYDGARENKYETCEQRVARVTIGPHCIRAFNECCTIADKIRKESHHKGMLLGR
Put plainly: SPR. The conditions noted are these: L-RNA; L-2'-deoxy dU7,dG14,dA15,dU28,dU30,dC38; 5' 40 kDa PEG; no binding up to 1000 nM; purified recombinant protein; synthetic backbone; mirror-image nucleic acid; variant of NOX-D20001 (NOX-D19001-6xDNA-020).

In data set [5] the test system is T4, rhesus monkey C5a (Macaca mulatta).
T4 sequence: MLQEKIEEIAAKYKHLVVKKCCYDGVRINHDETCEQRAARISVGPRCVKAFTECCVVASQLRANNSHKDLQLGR
In words: SPR. The conditions noted are these: L-RNA; L-2'-deoxy dU7,dG14,dA15,dU28,dU30,dC38; 5' 40 kDa PEG; no binding up to 1000 nM; purified recombinant protein; synthetic backbone; mirror-image nucleic acid; variant of NOX-D20001 (NOX-D19001-6xDNA-020).

The target of data set [6] is T2, mouse C5a (Mus musculus). Put plainly: SPR. The conditions noted are these: L-RNA, purified recombinant protein, protein details: amine-coupled to CM5 chip for SPR, synthetic backbone, mirror-image nucleic acid.
Where [7] appears, read: L-2'-deoxy dU6,dG13,dA14,dU27,dU29,dC37, mirror-image nucleic acid, variant of NOX-D19001-6xDNA (D09-16-17-30-32-40).
Where [8] appears, read: L-2'-deoxy dU7,dG14,dA15,dU28,dU30,dC38, mirror-image nucleic acid, variant of NOX-D19001-6xDNA (D09-16-17-30-32-40).
Where [9] appears, read: L-2'-deoxy dU8,dG15,dA16,dU29,dU31,dC39, mirror-image nucleic acid, variant of NOX-D19001-6xDNA (D09-16-17-30-32-40).
Setting [10] is: among best binders, mirror-image nucleic ….

For the sequence “CGAUGUGGUGGUGAAGGGUUGUUGGGUGUCGACGCACGC [NOX-D19001-6xDNA-028]”, the binding result with human C5a (Homo sapiens) [1] (setting [7]) is listed as “binds”. Consider “CGCACGCAGCUGUGGGUUGUUGGGAAGUGGUGGUGUAGCG [revNOX-D21]”, for which, in the data set with human C5a (Homo sapiens) [1] (L-2'-deoxy dC3,dU13,dU34, 5' 40 kDa PEG, reverse-sequence control, earlier shown not to inhibit C5a in Biacore and cell assays, mirror-image nucleic acid), the binding result was “no binding”. For the sequence “CGGACACGCAGCUGUGGGUUGUUGGGAAGUGGUGGUGUAGUCCG [revNOX-D19]”, the binding result with human C5a (Homo sapiens) [1] (5' 40 kDa PEG, reverse-sequence control, earlier shown not to inhibit C5a in Biacore and cell assays, mirror-image nucleic acid, variant of NOX-D19 (NOX-D19001-5'40kDa-PEG)) was “no binding”. Turning to “CUGAUGUGGUGGUGAAGGGUUGUUGGGUGUCGACGCACAGC [NOX-D19001-6xDNA-021]”, the binding result with human C5a (Homo sapiens) [1] (setting [8]) is listed as “binds”.

For “GCGAUGUGGUGGUGAAGGGUUGUUGGGUGUCGACGCACGC [NOX-D20 (NOX-D19001-6xDNA-020-5'40kDa-PEG)]”, the pIC50 with mouse C5a (Mus musculus) [2] is 9.85; with human C5a (Homo sapiens) [3] (L-2'-deoxy dU7,dG14,dA15,dU28,dU30,dC38, variant of NOX-D20001 (NOX-D19001-6xDNA-020)) it was 9.56. The binding result in data set [4] and in data set [5] was “no binding” in each case.

With “GCUGAUGUGGUGGUGAAGGGUUGUUGGGUGUCGACGCACA [NOX-D19001-6xDNA-027]”, the binding result in the data set with human C5a (Homo sapiens) [1] (setting [9]) is “binds”.

For the sequence “UGAUGUGGUGGUGAAGGGUUGUUGGGUGUCGACGCACAGC [NOX-D19001-6xDNA-022]”, the binding result with human C5a (Homo sapiens) [1] (setting [7]) is “binds”. For the sequence “GGAUGUGGUGGUGAAGGGUUGUUGGGUGUCGACGCACC [NOX-D19001-6xDNA-033]”, the binding result with human C5a (Homo sapiens) [1] (setting [7]) was “binds”. For “GCCUGAUGUGGUGUUGAAGGGUUGUUGGGUGUCGACGCACAGGC [274-C8-002]”, the binding result with mouse C5a (Mus musculus) [6] (among best binders) and in the data set with human C5a (Homo sapiens) [1] (setting [10]) was “binds” in each case.

“GCCUGAUGUGGUGGUGAAGGGUUGUUGGGUGUCGACGCACAGGC [NOX-D19 (NOX-D19001-5'40kDa-PEG)]”: the pIC50 with human C5a (Homo sapiens) [3] (variant of NOX-D19001 (274-C8-002-G14)) was 8.72. Consider “CUGAUGUGGUGGUGAAGGGUUGUUGGGUGUCGACGCACAGGC [NOX-D19001-6xDNA-008]”, for which the binding result with human C5a (Homo sapiens) [1] (setting [8]) is on record as “binds”.

For “GCGAUGUGGUGGUGAAGGGUUGUUGGGUGUCGACGCACGC [NOX-D21 (NOX-D19001-2dU-1dC-020-5'40kDa-PEG)]”, in the data set with human C5a (Homo sapiens) [3] (L-2'-deoxy dU7,dU28,dC38, variant of NOX-D21001 (NOX-D19001-2dU-1dC-020)), the negative logarithm of the IC50 (pIC50) is 9.32. “GCCUGAUGUGGUGGUGAGGGGAUGUGGGGUGUCGACGCACAGGC [274-G6-002]”: the binding result with mouse C5a (Mus musculus) [6] and with human C5a (Homo sapiens) [1] (mirror-image nucleic acid) was “binds” throughout. Turning to “GCUGAUGUGGUGGUGAAGGGUUGUUGGGUGUCGACGCACAGC [NOX-D19001-6xDNA-011]”, the binding result with human C5a (Homo sapiens) [1] (setting [9]) is listed as “binds”. On the same count and under the same terms, the value for “GCUGAUGUGGUGGUGAAGGGUUGUUGGGUGUCGACGCACC [NOX-D19001-6xDNA-026]” was “binds”.

Turning to “UGAUGUGGUGGUGAAGGGUUGUUGGGUGUCGACGCACA [NOX-D19001-6xDNA-013]”, the binding result with human C5a (Homo sapiens) [1] (setting [7]) was “binds”. In the case of “GUGAUGUGGUGGUGAAGGGUUGUUGGGUGUCGACGCACAC [NOX-D19001-6xDNA-012]”, the binding result with human C5a (Homo sapiens) [1] (setting [8]) is recorded as “binds”.

For “GCGAUGUGGUGGUGAAGGGUUGUUGGGUGUCGACGCACGC [NOX-D19001-1xDNA-020]”, the binding result with human C5a (Homo sapiens) [1] (L-2'-deoxy dU7, mirror-image nucleic acid, variant of NOX-D19001-020) was “binds”. As to “CGAUGUGGUGGUGAAGGGUUGUUGGGUGUCGACGCACAGC [NOX-D19001-6xDNA-023]”, in the data set with human C5a (Homo sapiens) [1] (setting [7]), the binding result was “binds”. In the case of “UGAUGUGGUGGUGAAGGGUUGUUGGGUGUCGACGCACAGGC [NOX-D19001-6xDNA-009]”, in the data set with human C5a (Homo sapiens) [1] (setting [7]), the binding result is “binds”.

As to “GCCUGAUGUGGUGGUGAGGGGUUGUGGGGUGUCGACGCACAGGC [274-C5-002]”, the binding result in the data set with mouse C5a (Mus musculus) [6] (among best binders) and with human C5a (Homo sapiens) [1] (setting [10]) was “binds” in each case.

In the case of “GCCUGAUGUGGUGUUGAAGGGUUGUGGGGUGUCGACGCACAGGC [274-B5-002]”, the binding result with mouse C5a (Mus musculus) [6] and in the data set with human C5a (Homo sapiens) [1] (mirror-image nucleic acid) was “binds” each time. Turning to “CCUGAUGUGGUGGUGAAGGGUUGUUGGGUGUCGACGCACAGGC [NOX-D19001-6xDNA-007]”, the binding result with human C5a (Homo sapiens) [1] (setting [9]) is “binds”. With “GCCGAUGUGGUGGUGAAGGGUUGUUGGGUGUCGACGCACGGC [NOX-D19001-6xDNA-018]”, the binding result with human C5a (Homo sapiens) [1] (setting [9]) is given as “binds”. “GGCGAUGUGGUGGUGAAGGGUUGUUGGGUGUCGACGCACGCC [NOX-D19001-6xDNA-019]”: in the data set with human C5a (Homo sapiens) [1] (setting [9]), the binding result is given as “binds”. As to “GCCUGAUGUGGUGUUGAGGGGUUGUGGGGUGUCGACGCACAGGC [274-D5-002]”, the binding result with mouse C5a (Mus musculus) [6] and with human C5a (Homo sapiens) [1] (mirror-image nucleic acid) was “binds” each time.

“GCUGAUGUGGUGGUGAAGGGUUGUUGGGUGUCGACGCACAC [NOX-D19001-6xDNA-025]”: the binding result in the data set with human C5a (Homo sapiens) [1] (setting [9]) is reported as “binds”.

As to “GCGAUGUGGUGGUGAAGGGUUGUUGGGUGUCGACGCACC [NOX-D19001-6xDNA-030]”, the binding result in the data set with human C5a (Homo sapiens) [1] (setting [8]) is reported as “binds”.
